Data: article PMC5510181

Biological target: GST-GRB2 SH3-1 domain (N-terminal SH3)
Assay: pull-down; GST fusion proteins from E. coli incubated 3 h with detergent lysates of transfected 293T cells; SDS-PAGE and western blotting; only the target purified

B1: Flag-tagged SKAP1 (protein, UniProt Q86WV1 1-359)
chain: MQAAALPEEIRWLLEDAEEFLAEGLRNENLSAVARDHRDHILRGFQQIKARYYWDFQPQGGDIGQDSSDDNHSGTLGLSLTSDAPFLSDYQDEGMEDIVKGAQELDNVIKQGYLEKKSKDHSFFGSEWQKRWCVVSRGLFYYYANEKSKQPKGTFLIKGYGVRMAPHLRRDSKKESCFELTSQDRRSYEFTATSPAEARDWVDQISFLLKDLSSLTIPYEEDEEEEEKEETYDDIDGFDSPSCGSQCRPTILPGSVGIKEPTEEKEEEDIYEVLPDEEHDLEEDESGTRRKGVDYASYYQGLWDCHGDQPDELSFQRGDLIRILSKEYNMYGWWVGELNSLVGIVPKEYLTTAFEVEER
binding: binds

These are yes or no findings as the source states them, for the method shown. Binding seen in cells or lysates may run through a third protein. Binding can be weak; no strength is given. Sequences can lack the tags named with a protein.
